Some of the results follow.
Key:
Test in all cases: glycan array binding signal (z-score within array); higher = stronger binding
Details in all cases: glycan notation: IUPAC condensed, linker removed
[1] = target: Neu5Ac(a2-6)Gal(b1-4)GlcNAc(b1-2)Man(a1-3)[Man(a1-6)]Man(b1-4)GlcNAc(b1-4)GlcNAc
How it was run: (§1)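 Glycan array data were curated from 3228 arrays in the Consortium for Functional Glycomics database and kept only where the protein sequence was available. Glycan names were converted to IUPAC-condensed notation, and columns mapping to the same glycan were averaged. The binding signal is a within-array Z-score, averaged across arrays of the same protein sequence at different concentrations or buffers and across linkers. Negative Z-scores can be read as non-binding.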

[2] = target: Neu5Ac(a2-6)Gal(b1-4)GlcNAc(b1-2)Man(a1-3)[Neu5Ac(a2-3)Gal(b1-4)GlcNAc(b1-2)Man(a1-6)]Man(b1-4)GlcNAc(b1-4)GlcNAc
How it was run: as §1

[3] = target: Neu5Ac(a2-6)Gal(b1-4)GlcNAc(b1-2)Man(a1-3)[Neu5Ac(a2-6)Gal(b1-4)GlcNAc(b1-2)Man(a1-6)]Man(b1-4)GlcNAc(b1-4)GlcNAc
How it was run: as §1

[4] = target: Neu5Ac(a2-6)Gal(b1-4)GlcNAc(b1-2)Man(a1-3)[Neu5Ac(a2-6)Gal(b1-4)GlcNAc(b1-2)Man(a1-6)]Man(b1-4)GlcNAc(b1-4)[Fuc(a1-6)]GlcNAc
How it was run: as §1

[5] = target: Neu5Ac(a2-6)Gal(b1-4)GlcNAc(b1-2)Man(a1-6)Man(b1-4)GlcNAc(b1-4)GlcNAc
How it was run: as §1

[6] = target: Neu5Ac(a2-6)Gal(b1-4)GlcNAc(b1-2)Man(a1-6)[Gal(b1-4)GlcNAc(b1-2)Man(a1-3)]Man(b1-4)GlcNAc(b1-4)GlcNAc
How it was run: as §1

[7] = target: Neu5Ac(a2-6)Gal(b1-4)GlcNAc(b1-2)Man(a1-6)[GlcNAc(b1-2)Man(a1-3)]Man(b1-4)GlcNAc(b1-4)GlcNAc
How it was run: as §1

[8] = target: Neu5Ac(a2-6)Gal(b1-4)GlcNAc(b1-2)Man(a1-6)[Man(a1-3)]Man(b1-4)GlcNAc(b1-4)GlcNAc
How it was run: as §1

[9] = target: Neu5Ac(a2-6)Gal(b1-4)GlcNAc(b1-2)[Neu5Ac(a2-6)Gal(b1-4)GlcNAc(b1-4)]Man(a1-3)[GlcNAc(b1-4)][Neu5Ac(a2-6)Gal(b1-4)GlcNAc(b1-2)[Neu5Ac(a2-6)Gal(b1-4)GlcNAc(b1-6)]Man(a1-6)]Man(b1-4)GlcNAc(b1-4)GlcNAc
How it was run: as §1

[10] = target: Neu5Ac(a2-6)Gal(b1-4)GlcNAc(b1-2)[Neu5Ac(a2-6)Gal(b1-4)GlcNAc(b1-4)]Man(a1-3)[GlcNAc(b1-4)][Neu5Ac(a2-6)Gal(b1-4)GlcNAc(b1-4)Man(a1-6)]Man(b1-4)GlcNAc(b1-4)GlcNAc
How it was run: as §1

[11] = target: Neu5Ac(a2-6)Gal(b1-4)GlcNAc(b1-2)[Neu5Ac(a2-6)Gal(b1-4)GlcNAc(b1-6)]Man(a1-6)[Neu5Ac(a2-6)Gal(b1-4)GlcNAc(b1-2)Man(a1-3)][GlcNAc(b1-4)]Man(b1-4)GlcNAc(b1-4)GlcNAc
How it was run: as §1

[12] = target: Neu5Ac(a2-6)Gal(b1-4)GlcNAc(b1-3)Gal(b1-3)GlcNAc
How it was run: as §1

[13] = target: Neu5Ac(a2-6)Gal(b1-4)GlcNAc(b1-3)Gal(b1-4)GlcNAc
How it was run: as §1

[14] = target: Neu5Ac(a2-6)Gal(b1-4)GlcNAc(b1-3)Gal(b1-4)GlcNAc(b1-2)Man(a1-3)[Neu5Ac(a2-6)Gal(b1-4)GlcNAc(b1-3)Gal(b1-4)GlcNAc(b1-2)Man(a1-6)]GalNAc
How it was run: as §1

[15] = target: Neu5Ac(a2-6)Gal(b1-4)GlcNAc(b1-3)Gal(b1-4)GlcNAc(b1-3)Gal(b1-4)GlcNAc
How it was run: as §1

[16] = target: Neu5Ac(a2-6)Gal(b1-4)GlcNAc(b1-3)Gal(b1-4)GlcNAc(b1-3)Gal(b1-4)GlcNAc(b1-2)Man(a1-3)[Neu5Ac(a2-6)Gal(b1-4)GlcNAc(b1-3)Gal(b1-4)GlcNAc(b1-3)Gal(b1-4)GlcNAc(b1-2)Man(a1-6)]GalNAc
How it was run: as §1

[17] = target: Neu5Ac(a2-6)Gal(b1-4)GlcNAc(b1-3)Gal(b1-4)GlcNAc(b1-3)GalNAc
How it was run: as §1

[18] = target: Neu5Ac(a2-6)Gal(b1-4)GlcNAc(b1-3)Gal(b1-4)GlcNAc(b1-3)[Neu5Ac(a2-6)Gal(b1-4)GlcNAc(b1-3)Gal(b1-4)GlcNAc(b1-6)]GalNAc
How it was run: as §1

[19] = target: Neu5Ac(a2-6)Gal(b1-4)GlcNAc(b1-3)Gal(b1-4)GlcNAc(b1-6)[Gal(b1-3)]GalNAc
How it was run: as §1

[20] = target: Neu5Ac(a2-6)Gal(b1-4)GlcNAc(b1-3)Gal(b1-4)[Fuc(a1-3)]GlcNAc(b1-3)Gal(b1-4)[Fuc(a1-3)]GlcNAc
How it was run: as §1

[21] = target: Neu5Ac(a2-6)Gal(b1-4)GlcNAc(b1-3)GalNAc
How it was run: as §1

[22] = target: Neu5Ac(a2-6)Gal(b1-4)GlcNAc(b1-3)[Neu5Ac(a2-6)Gal(b1-4)GlcNAc(b1-6)]GalNAc
How it was run: as §1

[23] = target: Neu5Ac(a2-6)Gal(b1-4)GlcNAc(b1-6)GalNAc
How it was run: as §1

[24] = target: Neu5Ac(a2-6)Gal(b1-4)GlcNAc(b1-6)[Gal(b1-3)GlcNAc(b1-3)]Gal(b1-4)Glc
How it was run: as §1

[25] = target: Neu5Ac(a2-6)Gal(b1-4)GlcNAc(b1-6)[Gal(b1-3)]GalNAc
How it was run: as §1

[26] = target: Neu5Ac(a2-6)Gal(b1-4)GlcNAc6S
How it was run: as §1

[27] = target: Neu5Ac(a2-6)GalNAc
How it was run: as §1

[28] = target: Neu5Ac(a2-6)GalNAc(b1-4)GlcNAc
How it was run: as §1

[29] = target: Neu5Ac(a2-6)GalNAc(b1-4)GlcNAc6S
How it was run: as §1

[30] = target: Neu5Ac(a2-6)GlcNAc(b1-4)GlcNAc
How it was run: as §1

[31] = target: Neu5Ac(a2-6)GlcNAc(b1-4)GlcNAc(b1-4)GlcNAc
How it was run: as §1

B1: B936 (Bifidobacterium sp) (protein)
chain: MKNWKKAIALVASAAALVSVAACGPSNAGGSSDSGKKTVGFVAVGPEGGFRTANEKDIQKAFEDAGFDLTYSPTQNNDQQKQIQAFNKFVNDEVDAIILSSTEDSGWDDSLKKAAEAEIPVFTVDRNVDVKDAEAKKAIVAHIGPSNVWCGEQAAEFVNKNFPDGANGFILEGPAGLSVVKDRGTGWGNKVASNVKVLESQSANWSTDEAKTVTAGLLDKYKSDNPQFIFAQNDEMGLGAAQAVDAAGLKGKVKIITIDGTKNALQALVDGDLSYVIEYNPIFGKETAQAVKDYLDGKTVEKDIEIESKTFDAASAKEALDNNTRAY
**Q.** Which results are given for B1?
**A.** glycan array binding signal (z-score) [1]: -0.024; glycan array binding signal (z-score) [2]: -0.482; glycan array binding signal (z-score) [3]: -0.289; glycan array binding signal (z-score) [4]: 0.231; glycan array binding signal (z-score) [5]: 0.197; glycan array binding signal (z-score) [6]: -0.37; glycan array binding signal (z-score) [7]: -0.837; glycan array binding signal (z-score) [8]: -0.38; glycan array binding signal (z-score) [9]: -0.539; glycan array binding signal (z-score) [10]: 1.12; glycan array binding signal (z-score) [11]: -0.739; glycan array binding signal (z-score) [12]: -0.036; glycan array binding signal (z-score) [13]: -0.116; glycan array binding signal (z-score) [14]: 0.592; glycan array binding signal (z-score) [15]: -0.561; glycan array binding signal (z-score) [16]: 0.845; glycan array binding signal (z-score) [17]: -0.228; glycan array binding signal (z-score) [18]: 0.796; glycan array binding signal (z-score) [19]: 0.558; glycan array binding signal (z-score) [20]: 0.188; glycan array binding signal (z-score) [21]: 2.06; glycan array binding signal (z-score) [22]: -0.353; glycan array binding signal (z-score) [23]: -0.332; glycan array binding signal (z-score) [24]: -0.335; glycan array binding signal (z-score) [25]: 0.201; glycan array binding signal (z-score) [26]: -0.788; glycan array binding signal (z-score) [27]: 0.167; glycan array binding signal (z-score) [28]: -1.38; glycan array binding signal (z-score) [29]: -0.333; glycan array binding signal (z-score) [30]: -0.323; glycan array binding signal (z-score) [31]: -0.943

Source: the supplement of paper PMC8728848
